Experimental data from the supplement of paper PMC10849652.
The other results are listed elsewhere or left out.

Chains of the proteins cited; added tags and fusions are not shown. Lines headed by an entry give the natural chain unless they say otherwise; changes in a name come on top.
UniProt Q86YP4: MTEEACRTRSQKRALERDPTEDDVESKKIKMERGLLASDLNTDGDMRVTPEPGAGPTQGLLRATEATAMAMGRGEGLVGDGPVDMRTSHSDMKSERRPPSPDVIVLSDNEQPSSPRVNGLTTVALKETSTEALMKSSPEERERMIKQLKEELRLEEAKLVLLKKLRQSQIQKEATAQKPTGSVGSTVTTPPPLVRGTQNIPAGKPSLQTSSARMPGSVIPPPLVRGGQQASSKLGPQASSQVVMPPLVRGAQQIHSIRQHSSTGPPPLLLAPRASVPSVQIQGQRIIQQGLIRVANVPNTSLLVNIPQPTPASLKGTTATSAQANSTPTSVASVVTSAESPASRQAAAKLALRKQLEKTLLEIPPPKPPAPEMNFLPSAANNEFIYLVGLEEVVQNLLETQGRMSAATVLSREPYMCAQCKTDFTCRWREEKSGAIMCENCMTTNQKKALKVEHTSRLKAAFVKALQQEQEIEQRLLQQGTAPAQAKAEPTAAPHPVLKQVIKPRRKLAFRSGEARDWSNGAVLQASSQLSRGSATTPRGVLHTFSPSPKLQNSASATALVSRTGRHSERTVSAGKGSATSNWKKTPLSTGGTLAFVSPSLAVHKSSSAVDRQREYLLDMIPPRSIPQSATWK
UniProt P02794, whole entry, looked up: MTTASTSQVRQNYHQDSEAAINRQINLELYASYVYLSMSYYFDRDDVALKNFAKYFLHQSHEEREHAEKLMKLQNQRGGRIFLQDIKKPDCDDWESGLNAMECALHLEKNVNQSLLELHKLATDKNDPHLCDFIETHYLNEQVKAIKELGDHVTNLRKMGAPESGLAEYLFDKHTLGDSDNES
UniProt Q8N9F7: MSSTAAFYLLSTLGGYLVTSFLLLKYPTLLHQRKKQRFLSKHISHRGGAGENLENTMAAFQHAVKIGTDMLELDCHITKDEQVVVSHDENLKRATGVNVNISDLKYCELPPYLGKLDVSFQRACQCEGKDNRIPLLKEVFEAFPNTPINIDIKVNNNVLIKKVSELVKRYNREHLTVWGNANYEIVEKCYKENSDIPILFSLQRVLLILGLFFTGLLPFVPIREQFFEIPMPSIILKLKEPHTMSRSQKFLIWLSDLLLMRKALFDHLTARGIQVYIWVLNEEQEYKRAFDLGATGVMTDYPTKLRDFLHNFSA
UniProt P15976: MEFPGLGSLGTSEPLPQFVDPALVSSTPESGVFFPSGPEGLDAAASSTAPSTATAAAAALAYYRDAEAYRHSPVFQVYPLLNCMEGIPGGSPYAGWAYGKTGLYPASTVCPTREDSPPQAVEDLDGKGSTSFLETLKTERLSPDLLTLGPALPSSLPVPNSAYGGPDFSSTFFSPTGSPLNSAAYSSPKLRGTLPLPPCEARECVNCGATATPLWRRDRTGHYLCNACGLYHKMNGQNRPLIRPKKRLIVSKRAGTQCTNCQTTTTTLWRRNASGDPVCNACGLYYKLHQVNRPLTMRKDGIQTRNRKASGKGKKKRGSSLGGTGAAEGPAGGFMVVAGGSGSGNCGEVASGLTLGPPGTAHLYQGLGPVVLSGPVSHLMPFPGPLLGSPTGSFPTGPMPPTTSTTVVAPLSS
UniProt Q99988: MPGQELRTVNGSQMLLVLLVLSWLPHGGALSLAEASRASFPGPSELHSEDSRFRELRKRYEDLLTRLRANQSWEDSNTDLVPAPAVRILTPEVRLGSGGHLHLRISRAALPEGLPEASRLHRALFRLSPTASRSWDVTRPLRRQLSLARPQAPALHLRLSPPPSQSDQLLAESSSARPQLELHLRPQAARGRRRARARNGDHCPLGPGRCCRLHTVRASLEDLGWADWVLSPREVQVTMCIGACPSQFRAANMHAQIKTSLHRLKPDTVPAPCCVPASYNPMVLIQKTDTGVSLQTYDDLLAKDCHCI
UniProt Q8N4A0: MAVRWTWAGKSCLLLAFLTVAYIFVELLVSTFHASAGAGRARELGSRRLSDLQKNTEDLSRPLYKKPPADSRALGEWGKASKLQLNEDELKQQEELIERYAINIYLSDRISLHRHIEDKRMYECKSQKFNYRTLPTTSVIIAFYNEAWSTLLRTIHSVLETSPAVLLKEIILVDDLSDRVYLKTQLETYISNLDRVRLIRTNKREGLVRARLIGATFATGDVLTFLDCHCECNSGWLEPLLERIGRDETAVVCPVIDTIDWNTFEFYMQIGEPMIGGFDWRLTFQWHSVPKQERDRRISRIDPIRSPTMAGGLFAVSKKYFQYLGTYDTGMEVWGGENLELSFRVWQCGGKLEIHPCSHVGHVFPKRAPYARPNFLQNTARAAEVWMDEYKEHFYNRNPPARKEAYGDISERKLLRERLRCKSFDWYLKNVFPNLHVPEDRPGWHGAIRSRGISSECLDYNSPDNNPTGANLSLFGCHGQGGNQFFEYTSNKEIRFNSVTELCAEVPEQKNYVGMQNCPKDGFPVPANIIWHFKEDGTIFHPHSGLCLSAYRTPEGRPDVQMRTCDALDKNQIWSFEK
UniProt Q9BWH2: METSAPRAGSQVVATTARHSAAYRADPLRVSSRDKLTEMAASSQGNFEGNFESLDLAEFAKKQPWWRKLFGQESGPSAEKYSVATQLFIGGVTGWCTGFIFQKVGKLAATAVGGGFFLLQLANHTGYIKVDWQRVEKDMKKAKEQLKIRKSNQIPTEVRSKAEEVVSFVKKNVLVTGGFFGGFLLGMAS
UniProt Q96RP9: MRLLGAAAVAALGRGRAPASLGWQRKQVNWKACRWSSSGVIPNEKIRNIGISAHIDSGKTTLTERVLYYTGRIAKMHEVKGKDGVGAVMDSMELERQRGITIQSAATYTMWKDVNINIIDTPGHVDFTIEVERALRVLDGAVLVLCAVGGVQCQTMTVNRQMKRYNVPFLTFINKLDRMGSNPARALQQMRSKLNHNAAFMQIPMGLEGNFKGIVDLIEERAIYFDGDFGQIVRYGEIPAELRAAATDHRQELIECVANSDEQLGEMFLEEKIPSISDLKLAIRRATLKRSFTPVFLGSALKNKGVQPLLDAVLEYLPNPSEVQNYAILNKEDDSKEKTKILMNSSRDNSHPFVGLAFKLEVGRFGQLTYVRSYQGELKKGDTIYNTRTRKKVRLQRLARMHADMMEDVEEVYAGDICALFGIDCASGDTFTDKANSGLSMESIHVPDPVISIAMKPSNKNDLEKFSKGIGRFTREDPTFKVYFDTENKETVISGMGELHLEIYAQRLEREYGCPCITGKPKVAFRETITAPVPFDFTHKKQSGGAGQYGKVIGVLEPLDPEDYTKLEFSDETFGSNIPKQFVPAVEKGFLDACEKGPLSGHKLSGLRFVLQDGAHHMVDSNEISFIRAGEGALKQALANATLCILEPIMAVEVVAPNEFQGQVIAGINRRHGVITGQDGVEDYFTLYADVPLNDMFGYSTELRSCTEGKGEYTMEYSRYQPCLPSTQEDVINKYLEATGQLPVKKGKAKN

What was measured:
Test in all cases: log2 fold change, soluble protein after heating vs DMSO (PISA); higher = thermal stabilisation; K562 cells, 10 uM, 30 min; active = over 0.2 and 3.5 SD of the protein, either way, in both replicates (recomputed)
[1] = compound: C1=CC=C(C=C1)[C@H](COC2=CC3=C(C=C2)NC(=O)N3)NC(=O)C4=CC=CN(C4=O)CC5=CC(=C(C=C5)F)F
Procedure, shortened: (§1)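 K562 cells (2×10^6 cells/mL) were treated with 10 μM compound for 30 min, and aliquots were heated for 3 min over 48°C-58°C. Pooled aliquots were extracted in PBS with 0.5% NP-40 at 4°C, and the supernatant after 21,000xg for 90 min was measured by TMTpro 16plex LC-MS/MS with channel sums equalised. Reported thermal stability, relative to control samples and from duplicates, is a log2 fold change.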

[2] = compound: CC1=C(SC2=C1C(=N[C@H](C3=NN=C(N32)C)CC(=O)N)C4=CC=C(C=C4)Cl)C
Procedure, shortened: as §1

[3] = compound: CC1=C2C(=CC=C1)N=C(N(C2=O)C3=CC=CC=C3C)CN4C=NC5=C(N=CN=C54)N
Procedure, shortened: as §1

[4] = compound: Cc1sc2c(c1C)C(c1ccc(Cl)cc1)=N[C@@H](CC(=O)OC(C)(C)C)c1nnc(C)n1-2
Procedure, shortened: as §1

[5] = compound: c1ccc([C@@H]2C[C@H]2NC2CCNCC2)cc1
Procedure, shortened: as §1

Measured: log2 fold change

GATAD2A isoform 3 (UniProt Q86YP4)
inactive: [1] -0.043 | [2] -0.006 | [3] 0.059 | [4] 0.056 | [5] -0.003

FTH1 (UniProt P02794)
inactive: [1] -0.007 | [2] 0.027 | [3] -0.158 | [4] 0.05 | [5] -0.037

GDPD1 (UniProt Q8N9F7)
inactive: [1] -0.054 | [2] 0.003 | [3] 0.057 | [4] -0.024 | [5] 0.034

GATA1 (UniProt P15976)
inactive: [1] 0.061 | [2] -0.014 | [3] 0.064 | [4] 0.117 | [5] 0.029

GDF15 (UniProt Q99988)
inactive: [1] 0.004 | [2] -0.062 | [3] 0.025 | [4] -0.022 | [5] 0.042

GALNT4 (UniProt Q8N4A0)
inactive: [1] 0.007 | [2] 0.062 | [3] 0.109 | [4] -0.033 | [5] -0.002

FUNDC2 (UniProt Q9BWH2)
inactive: [1] 0.019 | [2] 0.015 | [3] -0.034 | [4] 0.026 | [5] 0.023

FSCN1 (UniProt Q16658)
inactive: [1] -0.045 | [2] 0.043 | [3] -0.019 | [4] -0.019 | [5] -0.015

2 successive records out of the list so far:
GATA1 (UniProt P15976)
inactive: [1] 0.061 | [2] -0.014 | [3] 0.064 | [4] 0.117 | [5] 0.029

GDF15 (UniProt Q99988)
inactive: [1] 0.004 | [2] -0.062 | [3] 0.025 | [4] -0.022 | [5] 0.042

The listing continues.

GFM1 (UniProt Q96RP9)
inactive: [1] -0.068 | [2] 0.099 | [3] 0.122 | [4] -0.011 | [5] -0.03
